Laboratory results published in the supplement of paper PMC12067093, “Discovery and optimisation of a covalent ligand for TRIM25 and its application to targeted protein ubiquitination” (Chemical Science, 2025).
The other results are listed elsewhere or left out.

Molecular target: T1, NTAN1_Q96AB6_75_DGSISILGSDDATTCHIVVLR (UniProt Q96AB6)
T1 sequence (whole entry): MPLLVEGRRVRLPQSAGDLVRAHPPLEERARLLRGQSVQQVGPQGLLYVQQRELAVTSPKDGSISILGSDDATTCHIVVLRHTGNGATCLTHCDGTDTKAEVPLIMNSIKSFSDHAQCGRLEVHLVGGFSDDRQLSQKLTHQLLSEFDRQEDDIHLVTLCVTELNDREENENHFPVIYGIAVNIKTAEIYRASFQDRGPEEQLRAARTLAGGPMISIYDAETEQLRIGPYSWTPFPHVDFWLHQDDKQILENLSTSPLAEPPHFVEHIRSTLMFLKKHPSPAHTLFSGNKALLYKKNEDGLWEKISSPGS
Assay: probe-labelled cysteine peptide fold change vs DMSO (competition) (log2 fold change); higher = less target engagement (more negative = stronger competition)
Conditions: THP-1, incubation time: 4 h
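Also: competitive profiling in live THP-1 cells: cysteine peptides tagged with an iodoacetamide desthiobiotin (IA-DTB) probe, intensity after compound treatment relative to DMSO-treated cells.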

In the case of `Cc1cc(C(=O)N2CCCN(C(=O)CCl)CC2)ccc1-c1ccccc1` [compound 10], the “probe-labelled cysteine peptide fold change” value (10 µM) is reported as -0.164 and the “probe-labelled cysteine peptide fold change” value (50 µM) is reported as -0.305.
